Measured values published in publication PMC9943068.
These are yes or no findings as the source states them, for the method shown. Binding seen in cells or lysates may run through a third protein. For some of these results: A result given as binding can be weak or reduced; the word gives no strength. For some of these results: Where a sequence is shown, tags or fusion partners need not be part of it.

T1: PAF15, endogenous Xenopus, non-ubiquitylated (Xenopus laevis (endogenous in egg extracts)) (UniProt Q5HZL4)
T1 sequence: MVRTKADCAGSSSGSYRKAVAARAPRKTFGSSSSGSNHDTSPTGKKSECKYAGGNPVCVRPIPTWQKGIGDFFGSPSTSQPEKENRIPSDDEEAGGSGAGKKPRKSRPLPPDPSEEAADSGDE

T2: GST-PAF15 wild-type (Xenopus PAF15) (Xenopus) (UniProt Q5HZL4)
T2 sequence: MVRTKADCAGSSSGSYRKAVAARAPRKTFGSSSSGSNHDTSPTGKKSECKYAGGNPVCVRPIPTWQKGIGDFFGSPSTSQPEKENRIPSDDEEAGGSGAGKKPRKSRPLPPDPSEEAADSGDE

T3: GST-PAF15 P/AxxS mutant (S79A/S97A; SA) (Xenopus) (UniProt Q5HZL4)
T3 sequence: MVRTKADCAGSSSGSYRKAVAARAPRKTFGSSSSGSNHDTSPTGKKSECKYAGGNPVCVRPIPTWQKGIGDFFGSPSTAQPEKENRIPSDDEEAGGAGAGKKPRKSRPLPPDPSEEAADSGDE

T4: GST-PAF15 KxxxK mutant (K101A/K105A; KA) (Xenopus) (UniProt Q5HZL4)
T4 sequence: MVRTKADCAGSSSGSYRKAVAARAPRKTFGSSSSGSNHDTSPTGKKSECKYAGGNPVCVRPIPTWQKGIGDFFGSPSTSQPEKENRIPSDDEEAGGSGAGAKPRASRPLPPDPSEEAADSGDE

T5: GST-PAF15 triple mutant (SAKA) (Xenopus) (UniProt Q5HZL4)
T5 sequence: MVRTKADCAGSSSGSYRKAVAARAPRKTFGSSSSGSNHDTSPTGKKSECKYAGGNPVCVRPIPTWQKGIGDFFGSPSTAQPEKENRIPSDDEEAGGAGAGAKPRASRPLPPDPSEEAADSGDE

B1: PAF15, endogenous Xenopus, non-ubiquitylated (protein, UniProt Q5HZL4 1-123)
chain: MVRTKADCAGSSSGSYRKAVAARAPRKTFGSSSSGSNHDTSPTGKKSECKYAGGNPVCVRPIPTWQKGIGDFFGSPSTSQPEKENRIPSDDEEAGGSGAGKKPRKSRPLPPDPSEEAADSGDE

Tests used:
[1] = target: T1, PAF15, endogenous Xenopus, non-ubiquitylated (Xenopus laevis (endogenous in egg extracts)); assay: co-IP; antibodies on Protein A agarose incubated with Xenopus egg extracts 2 hr at 4°C; endogenous proteins; washed with CPB, 2% sucrose, 0.1% Triton X-100; immunoblotting
[2] = target: T2, GST-PAF15 wild-type (Xenopus PAF15) (Xenopus); assay: pull-down; GST or GST-PAF15 proteins immobilized on Glutathione Sepharose 4B, incubated with interphase egg extracts 2 hr at 4°C; washed with CPB, 2% sucrose, 0.1% Triton X-100; immunoblotting; only the target purified
[3] = target: T3, GST-PAF15 P/AxxS mutant (S79A/S97A; SA) (Xenopus); assay: as above
[4] = target: T4, GST-PAF15 KxxxK mutant (K101A/K105A; KA) (Xenopus); assay: as above
[5] = target: T5, GST-PAF15 triple mutant (SAKA) (Xenopus); assay: as above
[6] = target: rUSP7-3xFLAG TRAF domain (residues 1-208) (Xenopus); assay: pull-down; rUSP7-3xFLAG proteins bound to anti-FLAG M2 resin, incubated with Xenopus egg extracts diluted fivefold in CPB with 2% sucrose, 2 hr at 4°C; immunoblotting; only the target purified
[7] = target: rUSP7-3xFLAG catalytic domain (residues 209-582) (Xenopus); assay: as above
[8] = target: rUSP7-3xFLAG UBL1-5 domain (residues 583-1124) (Xenopus); assay: as above
[9] = target: rUSP7-3xFLAG 3A (D780A/E781A/D786A) (Xenopus); assay: as above
[10] = target: rUSP7-3xFLAG W167A (Xenopus); assay: as above
[11] = target: rUSP7-3xFLAG wild type (Xenopus USP7) (Xenopus); assay: as above
[12] = target: rUSP7-3xFLAG with the UBL domain deleted (Xenopus); assay: as above
[13] = target: USP7 (Ubiquitin-Specific Protease 7), endogenous Xenopus (Xenopus laevis (endogenous in egg extracts)); assay: co-IP; antibodies on Protein A agarose incubated with Xenopus egg extracts 2 hr at 4°C; endogenous proteins; washed with CPB, 2% sucrose, 0.1% Triton X-100; immunoblotting

Molecule	binding [1]	binding [2]	binding [3]	binding [4]	binding [5]	binding [6]	binding [7]	binding [8]	binding [9]	binding [10]	binding [11]	binding [12]	binding [13]
USP7 (Ubiquitin-Specific Protease 7), endogenous Xenopus (enzyme)	binds	binds	binds	binds	no binding	–	–	–	–	–	–	–	–
B1	–	–	–	–	–	binds	no binding	no binding	binds	no binding	binds	binds	binds
